{"source": "PubChem BioAssay AID1224830 (NIAID, 2016)", "screen": "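Regulators of TLR4 signalling towards TNF-alpha in macrophage-like cells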 (primary screen)", "system": "human THP-1 monocytic leukaemia cells, TNF dual-luciferase reporter clone, PMA-differentiated to macrophage-like cells", "reagents": "siRNA pool against human genes, 50 nM", "timing": "LPS for 4 h, given about 3 days after siRNA transfection", "conditions": "bacterial LPS (TLR4 ligand), 10 ng/ml", "measurement": "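Ratio of firefly to renilla light, scaled to the plate median and expressed as a robust z-score per replicate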", "direction": "TNF reporter robust z-score: higher = stronger TNF reporter response to LPS", "active means": "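a well is active when its z-score exceeds 2.8 or falls below -1.5; control wells carry no call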", "note": "Shown is one part, drawn at random, of about 18,000 reagents tested. About 2,900 of all reagents (16%) count as active. 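Calls are made per well; low scores hint the gene aids the LPS response, high scores that it dampens it.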 Repeated entries: four replicate wells of each siRNA pool. No sequences are given here."}
{"gene knocked down":"CCHCR1 (coiled-coil alpha-helical rod protein 1)","TNF reporter robust z-score":2.37,"Outcome":"inactive"}
{"gene knocked down":"CCHCR1 (coiled-coil alpha-helical rod protein 1)","TNF reporter robust z-score":3.41,"Outcome":"active"}
{"gene knocked down":"CCHCR1 (coiled-coil alpha-helical rod protein 1)","TNF reporter robust z-score":2.3,"Outcome":"inactive"}
{"gene knocked down":"ZMIZ1 (zinc finger MIZ-type containing 1)","TNF reporter robust z-score":-1.26,"Outcome":"inactive"}
{"gene knocked down":"ZMIZ1 (zinc finger MIZ-type containing 1)","TNF reporter robust z-score":-0.72,"Outcome":"inactive"}
{"gene knocked down":"ZMIZ1 (zinc finger MIZ-type containing 1)","TNF reporter robust z-score":-1.37,"Outcome":"inactive"}
{"gene knocked down":"ZMIZ1 (zinc finger MIZ-type containing 1)","TNF reporter robust z-score":-1.03,"Outcome":"inactive"}
{"gene knocked down":"SP6 (Sp6 transcription factor)","TNF reporter robust z-score":-1.11,"Outcome":"inactive"}
{"gene knocked down":"SP6 (Sp6 transcription factor)","TNF reporter robust z-score":-0.93,"Outcome":"inactive"}
{"gene knocked down":"SP6 (Sp6 transcription factor)","TNF reporter robust z-score":-0.9,"Outcome":"inactive"}
{"gene knocked down":"SP6 (Sp6 transcription factor)","TNF reporter robust z-score":-1.03,"Outcome":"inactive"}
{"gene knocked down":"GPR160 (G protein-coupled receptor 160)","TNF reporter robust z-score":-0.84,"Outcome":"inactive"}
{"gene knocked down":"GPR160 (G protein-coupled receptor 160)","TNF reporter robust z-score":-0.67,"Outcome":"inactive"}
{"gene knocked down":"GPR160 (G protein-coupled receptor 160)","TNF reporter robust z-score":-0.6,"Outcome":"inactive"}
{"gene knocked down":"GPR160 (G protein-coupled receptor 160)","TNF reporter robust z-score":-0.05,"Outcome":"inactive"}
{"gene knocked down":"RHOXF2 (Rhox homeobox family member 2)","TNF reporter robust z-score":0.39,"Outcome":"inactive"}
{"gene knocked down":"RHOXF2 (Rhox homeobox family member 2)","TNF reporter robust z-score":-0.29,"Outcome":"inactive"}
{"gene knocked down":"RHOXF2 (Rhox homeobox family member 2)","TNF reporter robust z-score":-0.77,"Outcome":"inactive"}
{"gene knocked down":"RHOXF2 (Rhox homeobox family member 2)","TNF reporter robust z-score":-0.56,"Outcome":"inactive"}
{"gene knocked down":"KLHDC4 (kelch domain containing 4)","TNF reporter robust z-score":-0.09,"Outcome":"inactive"}
{"gene knocked down":"KLHDC4 (kelch domain containing 4)","TNF reporter robust z-score":0.72,"Outcome":"inactive"}
{"gene knocked down":"KLHDC4 (kelch domain containing 4)","TNF reporter robust z-score":0.5,"Outcome":"inactive"}
{"gene knocked down":"KLHDC4 (kelch domain containing 4)","TNF reporter robust z-score":0.99,"Outcome":"inactive"}
{"gene knocked down":"PEX16 (peroxisomal biogenesis factor 16)","TNF reporter robust z-score":-0.19,"Outcome":"inactive"}
{"gene knocked down":"PEX16 (peroxisomal biogenesis factor 16)","TNF reporter robust z-score":-0.7,"Outcome":"inactive"}
{"gene knocked down":"PEX16 (peroxisomal biogenesis factor 16)","TNF reporter robust z-score":-0.43,"Outcome":"inactive"}
{"gene knocked down":"PEX16 (peroxisomal biogenesis factor 16)","TNF reporter robust z-score":-0.54,"Outcome":"inactive"}
{"gene knocked down":"SPEM2 (SPEM family member 2)","TNF reporter robust z-score":1.74,"Outcome":"inactive"}
{"gene knocked down":"SPEM2 (SPEM family member 2)","TNF reporter robust z-score":1.11,"Outcome":"inactive"}
{"gene knocked down":"SPEM2 (SPEM family member 2)","TNF reporter robust z-score":-0.79,"Outcome":"inactive"}
{"gene knocked down":"SPEM2 (SPEM family member 2)","TNF reporter robust z-score":-0.63,"Outcome":"inactive"}
{"gene knocked down":"SPEM2 (SPEM family member 2)","TNF reporter robust z-score":3.15,"Outcome":"active"}
{"gene knocked down":"SPEM2 (SPEM family member 2)","TNF reporter robust z-score":3.31,"Outcome":"active"}
{"gene knocked down":"SPEM2 (SPEM family member 2)","TNF reporter robust z-score":1.02,"Outcome":"inactive"}
{"gene knocked down":"SPEM2 (SPEM family member 2)","TNF reporter robust z-score":2.18,"Outcome":"inactive"}
